In publication PMC10794948 one finds binding data, which are given here for three molecules.

Results are given in words; binding and its absence hold for the method and conditions named. Binding calls can cover weak binding; strength is not graded here. For some of these results: Binding seen in cells or lysates may run through a third protein. For some of these results: Where a sequence is shown, tags or fusion partners need not be part of it.

The target of assay [1] is T1, SmDDA1b with GFP tag in pEAQ (eggplant (Solanum melongena)).
T1 sequence: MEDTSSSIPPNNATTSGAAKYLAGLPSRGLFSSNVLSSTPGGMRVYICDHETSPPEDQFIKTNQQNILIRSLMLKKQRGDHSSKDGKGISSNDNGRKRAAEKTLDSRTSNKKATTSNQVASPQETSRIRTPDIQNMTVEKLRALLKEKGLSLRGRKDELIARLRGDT
The experiment in a line: co-IP; SmDDA1b-GFP and SmNAC-His co-expressed in N. benthamiana leaves; extract in 50 mM HEPES pH 7.5, 150 mM KCl, 1 mM EDTA, 1 mM DTT, 0.5% Triton X-100; precipitated with GFP antibody and Protein A+G agarose overnight at 4 C.

For assay [2], the target named is SmDDB1 in pGBKT7 (eggplant (Solanum melongena)). Description: two-hybrid; baits in pGBKT7 (SmNAC 1-139, SmDDB1), preys in pGADT7 (SmDDA1b, SmCUL4), Y2H Gold strain, Clontech kit 630489; SmDDA1b first found in a screen of an eggplant leaf cDNA library with SmNAC 1-139 as bait.
The target in assay [3] is SmNAC1-139 (N-terminal 139 aa of SmNAC) in pGBKT7 (eggplant (Solanum melongena)). Described as above.
Assay [4] concerns the target SmNAC in pSPYCE-35s/pUC-SPYCE (YCE) (eggplant (Solanum melongena)). The experiment in a line: split reporter; BiFC with split YFP (YNE/YCE) in agroinfiltrated N. benthamiana leaves, DsRed nuclear marker, with or without 50 uM MG132, dark, 22 C, 3 d, confocal microscopy.

Consider “SmNAC with His tag in pEAQ (eggplant (Solanum melongena))”, for which, in assay [1], the binding result is given as “binds”.

B1: SmDDA1b in pGADT7 (protein)
chain: MEDTSSSIPPNNATTSGAAKYLAGLPSRGLFSSNVLSSTPGGMRVYICDHETSPPEDQFIKTNQQNILIRSLMLKKQRGDHSSKDGKGISSNDNGRKRAAEKTLDSRTSNKKATTSNQVASPQETSRIRTPDIQNMTVEKLRALLKEKGLSLRGRKDELIARLRGDT
With B1, the binding result in assay [2] and in assay [3] was “binds” throughout.

B2: SmDDA1b in pSPYNE-35s/pUC-SPYNE (YNE) (protein)
chain: MEDTSSSIPPNNATTSGAAKYLAGLPSRGLFSSNVLSSTPGGMRVYICDHETSPPEDQFIKTNQQNILIRSLMLKKQRGDHSSKDGKGISSNDNGRKRAAEKTLDSRTSNKKATTSNQVASPQETSRIRTPDIQNMTVEKLRALLKEKGLSLRGRKDELIARLRGDT
Take B2: the binding entry in assay [4] is reported as “binds”.
